PubChem BioAssay AID504793 | Drosophila RNAi Screening Center, 2011

Assay: 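Knock-downs allowing continued mitosis even though DNA is damaged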 (primary screen)
Cells: Drosophila S2R+ cells
Reagents: long dsRNA against Drosophila genes, about 0.25 µg dsRNA per well
Duration: 4 days of dsRNA, then 4 hours of drug before read-out
Conditions: doxorubicin 0.5 µM for 4 hours to cause double-strand breaks, in cells also given a low, harmless dose of dsRNA against nbs to sensitise the assay
Measured: 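Mitotic index as the number of phospho-histone H3-positive cells in each well following doxorubicin, given as raw counts without normalisation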
Scale: mitotic cells: higher = more cells in mitosis, weaker G2 arrest
Active means: 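Genes are called active only when high mitotic counts were reproduced with independent dsRNAs and mitosis was checked for delay without damage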
Calls: active = confirmed in follow-up tests; inactive = not confirmed
The deposit covers about 23,000 reagents; below is a random part of those with a known target gene and a result. Of all reagents, 62 (0.27%) were called active. 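Calls come from follow-up tests whose scores are not deposited, so confirmed genes may have low counts here; counts are not normalised per plate.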 The raw values are shown without normalisation. Unmarked entries are inactive. Reagents against one gene are numbered here. Reagent sequences are not shown.

no.	Target gene	reagent	mitotic cells, replicate 1	mitotic cells, replicate 2
1	CG8407 (GeneID 36303)	1	3	
2	CG32987 (GeneID 318273)	1	9	
3	CG32987 (GeneID 318273)	2	5	
4	slow (GeneID 38540)	1	1	
5	slow (GeneID 38540)	2	7	
6	slow (GeneID 38540)	3	6	
7	Osi5 (GeneID 40759)	1	7	
8	Sam-S (GeneID 48552)	1	10	
9	CG32812 (GeneID 31074)	1	13	
10	v (GeneID 32026)	1	4	
11	CG9150 (GeneID 33856)	1	6	
12	CG9150 (GeneID 33856)	2	3	
13	CG30154 (GeneID 246487)	1	9	
14	CG30154 (GeneID 246487)	2	1	
15	CaBP1 (GeneID 34976)	1	6	
16	CG43672 (GeneID 318910)	1	11	
17	CG43672 (GeneID 318910)	2	6	
18	CG11626 (GeneID 42323)	1	12	
19	gammaSnap2 (GeneID 41239)	1	9	
20	tau (GeneID 326116)	1	7	
21	sced (GeneID 35564)	1	2	
22	Rca1 (GeneID 33959)	1	3	
23	Cyp4d2 (GeneID 31192)	1	4	
24	Srrm1 (GeneID 39483)	1	3	
25	CG12708 (GeneID 32502)	1	12	
26	CG14770 (GeneID 31085)	1	6	
27	Tsr1 (GeneID 40360)	1	7	
28	PolA1 (GeneID 42553)	1	2	
29	PolA1 (GeneID 42553)	2	5	
30	Kal1 (GeneID 42865)	1	6	
31	Dus2 (GeneID 32377)	1	8	
32	CG1077 (GeneID 40751)	1	6	
33	CG1077 (GeneID 40751)	2	5	
34	CG15547 (GeneID 43661)	1	8	
35	CG15547 (GeneID 43661)	2	3	
36	Coq2 (GeneID 40988)	1	5	
37	Coq2 (GeneID 40988)	2	14	
38	Coq2 (GeneID 40988)	3	4	
39	MnM (GeneID 38384)	1	4	
40	CG15322 (GeneID 33012)	1	2	
41	CG15322 (GeneID 33012)	2	8	
42	CG4860 (GeneID 41480)	1	13	
43	CG4860 (GeneID 41480)	2	2	
44	mRpS31 (GeneID 39749)	1	4	
45	CG14572 (GeneID 40422)	1	16	
46	CG9727 (GeneID 40794)	1	9	
47	CG9727 (GeneID 40794)	2	1	
48	babos (GeneID 37557)	1	7	
49	babos (GeneID 37557)	2	6	
50	CG13004 (GeneID 32673)	1	10	
51	Taldo (GeneID 37804)	1	7	
52	Taldo (GeneID 37804)	2	3	
53	casp (GeneID 36769)	1	9	
54	nbs (GeneID 44259)	1	5	
55	nbs (GeneID 44259)	2	9	
56	Cpr35B (GeneID 34846)	1	14	
57	Cpr35B (GeneID 34846)	2	4	
58	Cpr35B (GeneID 34846)	3	7	
59	side-IV (GeneID 41657)	1	5	
60	CG8028 (GeneID 32923)	1	15	
61	alphaTub84D (GeneID 40904)	1	95	
62	alphaTub84D (GeneID 40904)	2	9	
63	CG14691 (GeneID 41287)	1	8	
64	CG14691 (GeneID 41287)	2	8	
65	CG3513 (GeneID 33590)	1	4	
66	CG12730 (GeneID 31466)	1	15	
67	Psi (GeneID 36889)	1	6	
68	Psi (GeneID 36889)	2	4	
69	CG4928 (GeneID 32682)	1	8	
70	CG4928 (GeneID 32682)	2	10	
71	yuri (GeneID 34894)	1	3	
72	yuri (GeneID 34894)	2	3	
73	yuri (GeneID 34894)	3	3	
74	yuri (GeneID 34894)	4	3	
75	Pa1 (GeneID 32079)	1	9	
76	Pa1 (GeneID 32079)	2	9	
77	retn (GeneID 45976)	1	5	
78	retn (GeneID 45976)	2	12	
79	scramb1 (GeneID 326186)	1	2	
80	scramb1 (GeneID 326186)	2	3	
81	scramb1 (GeneID 326186)	3	4	
82	ubl (GeneID 35592)	1	4	
83	Mpv17 (GeneID 43831)	1	9	
84	brp (GeneID 35977)	1	8	
85	brp (GeneID 35977)	2	6	
86	brp (GeneID 35977)	3	7	
87	brp (GeneID 35977)	4	7	
88	brp (GeneID 35977)	5	5	
89	brp (GeneID 35977)	6	9	
90	CG31663 (GeneID 33363)	1	18	
91	CG31663 (GeneID 33363)	2	9	
92	CG31663 (GeneID 33363)	3	13	
93	CG31663 (GeneID 33363)	4	9	
94	SelG (GeneID 32149)	1	14	
95	SelG (GeneID 32149)	2	6	
96	CG31937 (GeneID 326177)	1	3	
97	ghi (GeneID 317833)	1	6	7
98	kl-2 (GeneID 3355181)	1	7	
99	CG2076 (GeneID 32041)	1	9	
100	CG2076 (GeneID 32041)	2	5	
101	CG32652 (retired record) (GeneID 318141)	1	8	
102	CG32652 (retired record) (GeneID 318141)	2	5	
103	CG32652 (retired record) (GeneID 318141)	3	6	
104	Acp29AB (GeneID 34162)	1	4	
105	CG14627 (GeneID 31063)	1	15	
106	CG30178 (GeneID 246501)	1	11	
107	Cpr65Eb (GeneID 38774)	1	4	
108	Cpr65Eb (GeneID 38774)	2	7	
109	CG33292 (retired record) (GeneID 2768953)	1	7	
110	CG33292 (retired record) (GeneID 2768953)	2	5	

Already shown: entries from further up.
no.	Target gene	reagent	mitotic cells, replicate 1	mitotic cells, replicate 2
19	gammaSnap2 (GeneID 41239)	1	9	
20	tau (GeneID 326116)	1	7	
21	sced (GeneID 35564)	1	2	
22	Rca1 (GeneID 33959)	1	3	
23	Cyp4d2 (GeneID 31192)	1	4	
